Values from PubChem BioAssay AID1224830 (NIAID, 2016)

- Screen: 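Host factors that control LPS-induced TNF expression in human macrophages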 (primary screen)
- System: human THP-1 monocytic leukaemia cells, TNF dual-luciferase reporter clone, PMA-differentiated to macrophage-like cells
- Reagents: siRNA pool against human genes, 50 nM
- Duration: LPS for 4 h, given about 3 days after siRNA transfection
- Challenge: bacterial LPS (TLR4 ligand), 10 ng/ml
- Read-out: 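TNF firefly reporter luminescence divided by renilla, normalised to the plate median, then turned into a robust z-score for each replicate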
- Reading the numbers: TNF reporter robust z-score: higher = stronger TNF reporter response to LPS
- Rule for the call: 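Each well counts as active if its z-score is over 2.8 or under -1.5; controls are left without a call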
The whole screen tested about 18,000 reagents; this is an unselected part. About 2,900 of all reagents (16%) were called active. 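Calls are made per well; low scores hint the gene aids the LPS response, high scores that it dampens it.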 Repeated entries: four replicate wells of each siRNA pool.

Target gene | TNF reporter robust z-score | Outcome
HEY1 | 0.29 | inactive
HEY1 | 2.15 | inactive
HEY1 | 1.94 | inactive
HEY1 | 1.37 | inactive
TNFAIP2 (TNF alpha induced protein 2) | 1.05 | inactive
TNFAIP2 (TNF alpha induced protein 2) | 2 | inactive
TNFAIP2 (TNF alpha induced protein 2) | 3.52 | active
TNFAIP2 (TNF alpha induced protein 2) | 1.45 | inactive
UIMC1 (ubiquitin interaction motif containing 1) | 0.53 | inactive
UIMC1 (ubiquitin interaction motif containing 1) | -0.17 | inactive
UIMC1 (ubiquitin interaction motif containing 1) | -1.18 | inactive
UIMC1 (ubiquitin interaction motif containing 1) | -0.48 | inactive
AGPAT4 (1-acylglycerol-3-phosphate O-acyltransferase 4) | -0.11 | inactive
AGPAT4 (1-acylglycerol-3-phosphate O-acyltransferase 4) | -0.46 | inactive
AGPAT4 (1-acylglycerol-3-phosphate O-acyltransferase 4) | 0.26 | inactive
AGPAT4 (1-acylglycerol-3-phosphate O-acyltransferase 4) | 1.03 | inactive
SSBP4 (single stranded DNA binding protein 4) | -0.01 | inactive
SSBP4 (single stranded DNA binding protein 4) | 0.27 | inactive
SSBP4 (single stranded DNA binding protein 4) | -0.25 | inactive
SSBP4 (single stranded DNA binding protein 4) | -0.77 | inactive
CIMIP7 (ciliary microtubule inner protein 7) | 0.76 | inactive
CIMIP7 (ciliary microtubule inner protein 7) | 0.65 | inactive
CIMIP7 (ciliary microtubule inner protein 7) | -0.24 | inactive
CIMIP7 (ciliary microtubule inner protein 7) | 0.54 | inactive
ATP2A3 | 1.09 | inactive
ATP2A3 | 0.51 | inactive
ATP2A3 | -0.69 | inactive
ATP2A3 | -0.55 | inactive
MFAP4 (microfibril associated protein 4) | -0.92 | inactive
MFAP4 (microfibril associated protein 4) | -0.72 | inactive
MFAP4 (microfibril associated protein 4) | -0.9 | inactive
MFAP4 (microfibril associated protein 4) | -0.98 | inactive
ANKIB1 (ankyrin repeat and IBR domain containing 1) | -1.33 | inactive
ANKIB1 (ankyrin repeat and IBR domain containing 1) | -0.58 | inactive
ANKIB1 (ankyrin repeat and IBR domain containing 1) | -0.32 | inactive
ANKIB1 (ankyrin repeat and IBR domain containing 1) | 0.37 | inactive
AKAP13 (A-kinase anchoring protein 13) | 0.06 | inactive
AKAP13 (A-kinase anchoring protein 13) | -0.29 | inactive
AKAP13 (A-kinase anchoring protein 13) | -0.44 | inactive
AKAP13 (A-kinase anchoring protein 13) | 0.49 | inactive
TNFRSF11B (TNF receptor superfamily member 11b) | 1.64 | inactive
TNFRSF11B (TNF receptor superfamily member 11b) | 2.86 | active
TNFRSF11B (TNF receptor superfamily member 11b) | 1.73 | inactive
TNFRSF11B (TNF receptor superfamily member 11b) | 2.93 | active
ECHDC3 (enoyl-CoA hydratase domain containing 3) | -0.1 | inactive
ECHDC3 (enoyl-CoA hydratase domain containing 3) | 0.72 | inactive
ECHDC3 (enoyl-CoA hydratase domain containing 3) | -0.11 | inactive
ECHDC3 (enoyl-CoA hydratase domain containing 3) | 0.14 | inactive
SPTY2D1 (SPT2 chromatin protein domain containing 1) | 1.27 | inactive
SPTY2D1 (SPT2 chromatin protein domain containing 1) | 0.32 | inactive
SPTY2D1 (SPT2 chromatin protein domain containing 1) | 0.62 | inactive
SPTY2D1 (SPT2 chromatin protein domain containing 1) | 2.1 | inactive
PRAF2 (PRA1 domain family member 2) | -1.68 | active
PRAF2 (PRA1 domain family member 2) | -1.73 | active
PRAF2 (PRA1 domain family member 2) | -1.27 | inactive
ZNF786 (zinc finger protein 786) | 0.24 | inactive
ZNF786 (zinc finger protein 786) | 0.43 | inactive
ZNF786 (zinc finger protein 786) | -0.21 | inactive
ZNF786 (zinc finger protein 786) | -0.27 | inactive
CD72 (CD72 molecule) | 0.84 | inactive
CD72 (CD72 molecule) | 0.2 | inactive
CD72 (CD72 molecule) | 0.89 | inactive
CD72 (CD72 molecule) | -0.78 | inactive
TFDP3 (transcription factor Dp family member 3) | 0.54 | inactive
TFDP3 (transcription factor Dp family member 3) | 1.9 | inactive
TFDP3 (transcription factor Dp family member 3) | -0.48 | inactive
TFDP3 (transcription factor Dp family member 3) | 1.56 | inactive
FGF16 (fibroblast growth factor 16) | -0.42 | inactive
FGF16 (fibroblast growth factor 16) | 2.2 | inactive
FGF16 (fibroblast growth factor 16) | 0.15 | inactive
FGF16 (fibroblast growth factor 16) | 0.93 | inactive
OR2J2 (olfactory receptor family 2 subfamily J member 2) | 0.49 | inactive
OR2J2 (olfactory receptor family 2 subfamily J member 2) | -0.74 | inactive
OR2J2 (olfactory receptor family 2 subfamily J member 2) | -0.85 | inactive
OR2J2 (olfactory receptor family 2 subfamily J member 2) | -1.1 | inactive
CDX4 (caudal type homeobox 4) | 0.02 | inactive
CDX4 (caudal type homeobox 4) | 0.68 | inactive
CDX4 (caudal type homeobox 4) | 0.49 | inactive
CDX4 (caudal type homeobox 4) | -1.62 | active
ZMYM1 (zinc finger MYM-type containing 1) | -0.13 | inactive
ZMYM1 (zinc finger MYM-type containing 1) | 0.06 | inactive
ZMYM1 (zinc finger MYM-type containing 1) | -0.14 | inactive
ZMYM1 (zinc finger MYM-type containing 1) | 0 | inactive
MAPRE2 (microtubule associated protein RP/EB family member 2) | -0.09 | inactive
MAPRE2 (microtubule associated protein RP/EB family member 2) | -0.22 | inactive
MAPRE2 (microtubule associated protein RP/EB family member 2) | 0.1 | inactive
MAPRE2 (microtubule associated protein RP/EB family member 2) | -0.02 | inactive
WDR59 (WD repeat domain 59) | -0.27 | inactive
WDR59 (WD repeat domain 59) | -0.61 | inactive
WDR59 (WD repeat domain 59) | 0.34 | inactive
WDR59 (WD repeat domain 59) | -0.68 | inactive
OR51T1 (olfactory receptor family 51 subfamily T member 1) | -0.42 | inactive
OR51T1 (olfactory receptor family 51 subfamily T member 1) | -0.17 | inactive
OR51T1 (olfactory receptor family 51 subfamily T member 1) | -1.04 | inactive
OR51T1 (olfactory receptor family 51 subfamily T member 1) | -0.18 | inactive
H3-4 (H3.4 histone, cluster member) | -0.37 | inactive
H3-4 (H3.4 histone, cluster member) | -1.03 | inactive
H3-4 (H3.4 histone, cluster member) | -0.68 | inactive
H3-4 (H3.4 histone, cluster member) | -0.41 | inactive
IFNL2 (interferon lambda 2) | 0.64 | inactive
IFNL2 (interferon lambda 2) | 0.78 | inactive
IFNL2 (interferon lambda 2) | 0.87 | inactive
IFNL2 (interferon lambda 2) | 0.62 | inactive
C1QL3 (complement C1q like 3) | 1.04 | inactive
C1QL3 (complement C1q like 3) | 0.9 | inactive
C1QL3 (complement C1q like 3) | -0.34 | inactive
C1QL3 (complement C1q like 3) | 0.57 | inactive
PRG4 (proteoglycan 4) | -0.45 | inactive
PRG4 (proteoglycan 4) | -0.51 | inactive
PRG4 (proteoglycan 4) | 1.83 | inactive
PRG4 (proteoglycan 4) | 1.69 | inactive

Laid out differently: entries from further up
TNFRSF11B (TNF receptor superfamily member 11b)
- TNF reporter robust z-score: 2.93
- Outcome: active

ECHDC3 (enoyl-CoA hydratase domain containing 3)
- TNF reporter robust z-score: -0.1
- Outcome: inactive

ECHDC3 (enoyl-CoA hydratase domain containing 3)
- TNF reporter robust z-score: 0.72
- Outcome: inactive

ECHDC3 (enoyl-CoA hydratase domain containing 3)
- TNF reporter robust z-score: -0.11
- Outcome: inactive

ECHDC3 (enoyl-CoA hydratase domain containing 3)
- TNF reporter robust z-score: 0.14
- Outcome: inactive

SPTY2D1 (SPT2 chromatin protein domain containing 1)
- TNF reporter robust z-score: 1.27
- Outcome: inactive

SPTY2D1 (SPT2 chromatin protein domain containing 1)
- TNF reporter robust z-score: 0.32
- Outcome: inactive
